Reference: PubChem BioAssay (EPA / NIEHS)
For part of these data: What follows is the remainder of the data, with few or none of the hits. Records with an inconclusive call do not appear. The list shows a part of the results, in another mix than the full data. Calls of active or inactive are those of the source. Rule for the calls, unless noted: active = hit-call score of the fitted dose curve at least 0.9, where 1 is the maximum; inactive = score below 0.9.

Amino acid sequences for entries named in this document (tags omitted). A change or cut given only in a name is not applied to a line headed by its entry.
UniProt P18090, whole entry, looked up: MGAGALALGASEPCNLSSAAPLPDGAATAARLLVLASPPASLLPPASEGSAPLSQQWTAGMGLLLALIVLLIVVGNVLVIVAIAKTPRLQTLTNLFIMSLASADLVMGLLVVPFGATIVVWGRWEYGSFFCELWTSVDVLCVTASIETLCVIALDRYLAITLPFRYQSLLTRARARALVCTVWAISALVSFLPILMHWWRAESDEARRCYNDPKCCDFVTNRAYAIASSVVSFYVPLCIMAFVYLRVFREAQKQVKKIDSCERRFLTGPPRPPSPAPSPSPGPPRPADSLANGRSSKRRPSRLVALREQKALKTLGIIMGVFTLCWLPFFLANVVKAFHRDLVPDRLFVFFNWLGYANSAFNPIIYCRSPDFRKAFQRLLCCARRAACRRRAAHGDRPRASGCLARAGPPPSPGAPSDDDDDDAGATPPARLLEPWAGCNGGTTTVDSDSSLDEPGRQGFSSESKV
UniProt P33535, whole entry, looked up: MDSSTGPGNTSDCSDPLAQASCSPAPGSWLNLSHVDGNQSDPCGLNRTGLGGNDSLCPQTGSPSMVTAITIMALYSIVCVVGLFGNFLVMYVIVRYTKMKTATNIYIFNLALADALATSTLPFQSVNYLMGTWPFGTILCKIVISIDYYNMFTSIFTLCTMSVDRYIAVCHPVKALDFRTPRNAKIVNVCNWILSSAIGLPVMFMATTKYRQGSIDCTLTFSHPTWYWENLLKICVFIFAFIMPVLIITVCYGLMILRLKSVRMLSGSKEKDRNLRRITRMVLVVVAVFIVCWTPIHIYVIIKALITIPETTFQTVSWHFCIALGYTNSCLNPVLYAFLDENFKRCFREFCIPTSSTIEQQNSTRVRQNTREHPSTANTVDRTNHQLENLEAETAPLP
UniProt P16257, whole entry, looked up: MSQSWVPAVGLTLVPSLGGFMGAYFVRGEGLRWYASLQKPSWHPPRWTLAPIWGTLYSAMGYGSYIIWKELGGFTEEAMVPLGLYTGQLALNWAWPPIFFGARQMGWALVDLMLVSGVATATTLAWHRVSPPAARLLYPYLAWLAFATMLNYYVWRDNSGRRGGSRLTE
UniProt P19793: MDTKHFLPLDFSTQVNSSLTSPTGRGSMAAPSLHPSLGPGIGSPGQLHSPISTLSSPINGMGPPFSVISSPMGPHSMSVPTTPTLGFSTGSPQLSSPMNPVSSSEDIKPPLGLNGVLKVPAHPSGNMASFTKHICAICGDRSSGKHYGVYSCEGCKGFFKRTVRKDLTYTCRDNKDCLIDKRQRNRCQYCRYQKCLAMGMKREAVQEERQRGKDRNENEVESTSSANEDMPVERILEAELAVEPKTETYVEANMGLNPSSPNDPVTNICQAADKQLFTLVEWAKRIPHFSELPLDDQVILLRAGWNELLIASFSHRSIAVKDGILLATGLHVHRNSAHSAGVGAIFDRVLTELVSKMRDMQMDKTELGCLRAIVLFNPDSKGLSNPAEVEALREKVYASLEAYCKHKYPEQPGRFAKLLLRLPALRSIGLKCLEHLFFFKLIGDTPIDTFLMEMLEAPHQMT

Key:
[1] = BSK_3C_SRB: Viability Assessment in the BioMAP Diversity Plus: 3C Assay (AID 2283023); conditions: primary human endothelial cells (HUVEC);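 note: fitted both ways against DMSO so a hit may be signal rise or drop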
Method in brief: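 HUVEC, 24 h post-dose; 10% TCA fix, 0.1% SRB stain, A560 nm. Bidirectional curve fit vs DMSO negative control.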

[2] = BSK_3C_Vis: BioMAP Diversity Plus: 3C Assay for Morphology Visualization (AID 2283025); conditions: primary human endothelial cells (HUVEC);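 note: light microscopy image of cell morphology used as background control; fitted both ways so gain or loss versus DMSO counts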
Method in brief: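 Chemicals were added to primary human umbilical vein endothelium, cells were incubated 24 h, and morphology was then visualized by light microscopy. Gain or loss of signal was fitted bidirectionally relative to DMSO.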

[3] = read-out: Human Leukocyte Antigen - DR isotype (HLADR), HLA-DRA (gene 3122); assay: BSK_BE3C_HLADR: BioMAP Diversity Plus: BE3C Assay for Human Leukocyte Antigen - DR isotype (HLADR) Biomarker Activity (AID 2283032); conditions: actives raise or lower the signal; primary human bronchial epithelial cells
Method in brief: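 ELISA read-out of HLA-DR on human lung bronchial epithelial primary cells, measured 24 h post-dosing. Both increases and decreases were scored relative to DMSO vehicle.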

[4] = read-out: Collagen III, COL3A1 (gene 1281); assay: BSK_hDFCGF_CollagenIII: BioMAP Diversity Plus: hDFCGF Assay for Collagen III Biomarker Activity (AID 2283056); conditions: actives raise or lower the signal; primary human foreskin fibroblasts
Method in brief: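 hDFCGF primary human dermal fibroblasts; 24 h chemical exposure; collagen III by ELISA; bidirectional curve fit vs DMSO baseline (gain or loss of signal).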

[5] = read-out: Epidermal growth factor receptor (EGFR), EGFR (gene 1956); assay: BSK_hDFCGF_EGFR: BioMAP Diversity Plus: hDFCGF Assay for Epidermal growth factor receptor (EGFR) Biomarker Activity (AID 2283057); conditions: actives raise or lower the signal; primary human foreskin fibroblasts
Method in brief: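 hDFCGF system, primary human foreskin fibroblasts; compound 24 h; EGFR measured by ELISA; DMSO = negative control/baseline; bidirectional fitting.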

[6] = read-out: TIMP metallopeptidase inhibitor 1 (TIMP1), TIMP1 (gene 7076); assay: BSK_hDFCGF_TIMP1: BioMAP Diversity Plus: hDFCGF Assay for TIMP metallopeptidase inhibitor 1 (TIMP1) Biomarker Activity (AID 2283062); conditions: actives raise or lower the signal; primary human foreskin fibroblasts
Method in brief: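 ELISA readout of TIMP-1 from human dermal foreskin fibroblast cultures 24 h post-dosing. Curves were fitted in both directions against DMSO baseline, with SRB total-protein staining in parallel cultures as a cytotoxicity check.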

[7] = read-out: Interleukin-1 alpha (IL1a), IL1A (gene 3552); assay: BSK_LPS_IL1a: BioMAP Diversity Plus: LPS Assay for Interleukin-1 alpha (IL1a) Biomarker Activity (AID 2283080); conditions: actives raise or lower the signal; primary human HUVEC with PBMC
Method in brief: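 HUVEC/PBMC co-culture, LPS system; 24 h after dosing; IL-1a by ELISA; gain or loss of signal fitted bidirectionally vs DMSO baseline.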

[8] = read-out: Monocyte Chemoattractant Protein-1 (MCP1), CCL2 (gene 6347); assay: BSK_SAg_MCP1: BioMAP Diversity Plus: SAg Assay for Monocyte Chemoattractant Protein-1 (MCP1) Biomarker Activity (AID 2283090); conditions: actives raise or lower the signal; primary human HUVEC with PBMC
Method in brief: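 MCP-1 levels in the endothelial–PBMC SAg co-culture were quantified by ELISA at 24 h post-dosing; both increases and decreases versus DMSO scored. Cytotoxicity monitored by SRB total protein in parallel cultures.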

[9] = read-out: Monokine induced gamma interferon (MIG), CXCL9 (gene 4283); assay: BSK_SAg_MIG: BioMAP Diversity Plus: SAg Assay for Monokine induced gamma interferon (MIG) Biomarker Activity (AID 2283092); conditions: actives raise or lower the signal; primary human HUVEC with PBMC
Method in brief: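 Measures CXCL9 protein by ELISA in a human vascular primary-cell co-culture (umbilical vein endothelium with PBMC) 24 h after chemical addition. Activity is scored up or down from the DMSO control.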

[10] = read-out: Interleukin-8 (IL8), CXCL8 (gene 3576); assay: BSK_SAg_IL8: BioMAP Diversity Plus: SAg Assay for Interleukin-8 (IL8) Biomarker Activity (AID 2283094); conditions: actives raise or lower the signal; primary human HUVEC with PBMC
Method in brief: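 ELISA read-out of IL-8 in a primary human vascular co-culture (umbilical vein endothelium plus PBMC), taken 24 h after compound addition. Values derive from bidirectional fits against DMSO negative controls.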

[11] = BSK_SAg_Proliferation: Cell Proliferation Assessment in the BioMAP Diversity Plus: SAg Assay (AID 2283095); conditions: primary human HUVEC with PBMC;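 note: relative cell number as total protein by SRB absorbance in sub-confluent culture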
Method in brief: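 Cells (endothelium plus PBMC, human primary) were dosed with chemical, cultured 96 h, fixed in 10% TCA and stained with 0.1% SRB. Absorbance at 560 nm gave relative protein, fitted bidirectionally relative to DMSO.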

[12] = target: rat Adrenergic Receptor, Beta (Adrb), Non-selective Binding, Adrb1 (gene 24925) (UniProt P18090); assay: NVS_GPCR_rAdrb_NonSelective: NovaScreen (NVS) G Protein-Coupled Receptor Assay for rat Adrenergic Receptor, Beta (Adrb), Non-selective Binding (AID 2283298; active = hit-call score of the fitted dose curve at least 0.9, where 1 is the maximum)
Method in brief: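 Non-selective beta-adrenergic radioligand binding in rat cortical membranes, 1 h incubation, filter-based scintillation read-out. Primary screen 25 uM in duplicate; hits retested in concentration-response up to 50 uM, DMSO baseline.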

[13] = target: rat Opioid Receptor, Non-selective Binding, Oprm1 (gene 25601) (UniProt P33535); assay: NVS_GPCR_rOpiate_NonSelective: NovaScreen (NVS) G Protein-Coupled Receptor Assay for rat Opioid Receptor, Non-selective Binding (AID 2283318; active = hit-call score of the fitted dose curve at least 0.9, where 1 is the maximum)
Method in brief: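 Rat forebrain membranes, cell-free radioligand binding with filter-based scintillation counting, read 1.5 h after dosing. Primary screen in duplicate at 25 uM; actives retested in concentration series. Loss of signal versus DMSO baseline scored.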

[14] = target: rat Peripheral-type Benzodiazepine Receptor (PBR), Tspo (gene 24230) (UniProt P16257); assay: NVS_MP_rPBR: NovaScreen (NVS) Membrane Protein Assay for rat Peripheral-type Benzodiazepine Receptor (PBR) (AID 2283335; active = hit-call score of the fitted dose curve at least 0.9, where 1 is the maximum)
Method in brief: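 Rat kidney membranes; radioligand binding with displacement, filter-based scintillation counting, 1 h incubation. Primary screen in duplicate at 25 uM, actives followed in concentration series; loss of binding vs DMSO.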

[15] = read-out: flavin-containing dimethylaniline monooxygenases 3 (FMO3), FMO3 (gene 2328); assay: LTEA_HepaRG_FMO3: Life Technologies and Expression Analysis (LTEA) Assay for flavin-containing dimethylaniline monooxygenases 3 (FMO3) using HepaRG (AID 2283453); conditions: actives raise or lower the signal; mRNA level, 48 h;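 note: differentiated human HepaRG liver cells in serum-free induction medium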
Method in brief: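 Differentiated HepaRG cells in serum-free induction medium, exposed 48 h in duplicate to 8 half-log concentrations up to 100 uM in 0.5% DMSO. FMO3 mRNA by qRT-PCR, normalized to ACTB, GAPDH, POLR2A; bidirectional fit vs DMSO.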

[16] = read-out: Peroxisomal acyl-coenzyme A oxidase 1 (ACOX1) gene, ACOX1 (gene 51); assay: LTEA_HepaRG_ACOX1: Life Technologies and Expression Analysis (LTEA) Assay for Peroxisomal acyl-coenzyme A oxidase 1 (ACOX1) gene using HepaRG (AID 2283467); conditions: actives raise or lower the signal; mRNA level, 48 h
Method in brief: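 Measured by qRT-PCR against three housekeeping genes: ACOX1 transcript change in human HepaRG cells after 48 h dosing. Concentrations ran up to 100 uM in half-log steps. Curves were fitted bidirectionally relative to 0.5% DMSO.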

[17] = read-out: succinate dehydrogenase complex iron sulfur subunit B (SDHB), SDHB (gene 6390); assay: LTEA_HepaRG_SDHB: Life Technologies and Expression Analysis (LTEA) Assay for succinate dehydrogenase complex iron sulfur subunit B (SDHB) using HepaRG (AID 2283528); conditions: actives raise or lower the signal; mRNA level, 48 h
Method in brief: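 Readout is SDHB transcript level by qRT-PCR, normalised to three housekeeping genes and fitted bidirectionally against 0.5% DMSO vehicle. Human HepaRG cells were treated for 48 h at up to 100 uM.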

[18] = CCTE_Shafer_MEA_acute_cross_correlation_area: CCTE's Neural Acute Assay for Area of Cross Correlation, Shafer Lab (AID 2284024);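 note: rat primary cortical neuron networks on 48-well MEA at DIV 13 or 15 with 40 min exposure; area under pooled inter-electrode spike cross-correlation near zero lag as percent change from own baseline; curves fitted for loss of cross-correlation area so actives lower synchrony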
Method in brief: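 Rat cortical cultures, DIV 13/15, MEA; spikes detected at 8x rms noise (300-5000 Hz band-pass). Compound 0.03-40 uM, ≥3 wells each. Readout: % change in pooled inter-electrode cross-correlation area vs own baseline; DMSO negative control.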

DIO2 (gene 1734) = assay: CCTE_GLTED_hDIO2: CCTE's human Deiodinase 2 (DIO2) Inhibition Assay, Great Lakes Toxicology and Ecology Division (GLTED) Lab (AID 2284050; active = hit-call score of the fitted dose curve at least 0.9, where 1 is the maximum)
Method in brief: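 hDIO2 enzyme + test chem, 3 h → free iodide from substrate; step 2: Sandell-Kolthoff (Ce IV reduction by As, iodide-catalysed), spectrophotometric read. Triplicate plates; DMSO = baseline.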

[19] = CCTE_Mundy_HCI_Cortical_NOG_NeuriteCount: CCTE's Neurite Outgrowth Assay in rat cortical cells for Neurite Count, Mundy Lab (AID 2284212);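 note: cells fixed about two days after chemical exposure began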
Method in brief: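 Neurite number per cell from high-content imaging of betaIII-tubulin immunostaining, with Hoechst nuclear counterstain.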

[20] = UKN4_HCS_LUHMES_cell_viability: Viability Assessment in the University of Konstanz (UKN) Leist Lab Neurite Outgrowth Assay in human LUHMES cells (UKN4) (AID 2284232)
Method in brief: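 Fluorescence intensity from high-content imaging of Hoechst H-33342/calcein-AM-stained cells served as the viability read-out. Human LUHMES precursors were differentiated 2 days, replated and treated 24 h; curves were fitted bidirectionally against DMSO.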

[21] = CCTE_Mundy_HCI_Cortical_NOG_NeuronCount: CCTE's Neurite Outgrowth Assay in rat cortical cells for Neuron Count, Mundy Lab (AID 2284236; active = hit-call score of the fitted dose curve at least 0.9, where 1 is the maximum;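 note: neurons counted by imaging betaIII-tubulin and Hoechst stained cortical cells; cells exposed to compound for about 48 hours before fixation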)
Method in brief: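 Read-out: neuron number by high-content imaging of betaIII-tubulin (Alexa Fluor-488) and Hoechst-labelled rat primary cortical cells.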

[22] = IUF_NPC1_cytotoxicity_72hr: Cytotoxicity Assessment at 72 hours in the Leibniz Research Institute for Environmental Medicine (IUF) Neural Progenitor Cell Proliferation Assay (NPC1) (AID 2284332; active = hit-call score of the fitted dose curve at least 0.9, where 1 is the maximum;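 note: rising LDH signal means more cytotoxicity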)
Method in brief: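 Spheres of primary human neural progenitors are plated one per well on day 0 in growth-factor medium and dosed at once. After three days at 37C, supernatant LDH is measured fluorimetrically via resazurin reduction.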

[23] = target: Retinoic acid receptor RXR-alpha (Homo sapiens) (UniProt P19793); assay: OT_NURR1_NURR1RXRa_0480: Odyssey Thera (OT) 8-hour HEK293T Protein Complementation Assay for Nurr1/retinoid X receptor (RXR) (AID 2283385; active = hit-call score of the fitted dose curve at least 0.9, where 1 is the maximum)
Method in brief: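 8 h compound exposure, HEK293T; Nurr1/RXRα fragment complementation; fluorescence intensity; positive fitting direction vs DMSO baseline.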

[24] = CCTE_Shafer_MEA_dev_network_spike_number: CCTE's Neural Network Formation Assay for Number of Network Spikes, Shafer Lab (AID 2284048);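 note: synchronized bursts across electrodes counted on days 5 7 9 12 and integrated as AUC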
Method in brief: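 Developing networks of primary rat cortical neurons are treated over 12 days starting at plating, with media and compound fully replaced on DIV 5 and 9. Network spike counts from four recording days are integrated as trapezoidal AUC.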

Measured: AC50

CN(C)CCCN1c2ccccc2Sc2ccc(Cl)cc21
inactive: [5] | [6] | [12] | [14] | [18]
active: [1] 27.9 µM | [2] 16.3 µM | [3] 28.8 µM | [4] 20 µM | [7] 31.1 µM | [8] 27.9 µM | [9] 34 µM | [10] 21.7 µM | [11] 14.8 µM | [13] 11.4 µM | [15] 70.2 µM | [16] 71 µM | [17] 12 µM | DIO2 (gene 1734) 101 µM | [19] 10.6 µM | [20] 18.5 µM | [21] 15.5 µM | [22] 15.2 µM

C[C@]12CC[C@@H]3c4ccc(O)cc4CC[C@H]3[C@@H]1CC[C@@H]2O
inactive: [8] | [23] | [24]
active: [1] 12 µM
